# Patent US20130310416A1, “Methods and Compositions for Preventing or Treating Age-Related Diseases” (Tartis-Aging, LLC, priority 2006, published 2013)
# At least one structure is not confirmed: it was looked up by name or label, or the drawing left a doubt.
# Legend:
# [1] = tested on: WI-38 normal human fibroblasts; assay: senescence-associated beta-galactosidase staining; format: cell-based; settings: 100 nM rapamycin with 100 nM doxorubicin or 150 μM H2O2, three days, FIG. 3
# [2] = tested on: WI-38 normal human fibroblasts; assay: senescence-associated increase in cellular protein (protein per cell); format: cell-based; settings: 100 nM rapamycin with 100 nM doxorubicin or 150 μM H2O2, three days, FIG. 4
# [3] = tested on: WI-38 normal human fibroblasts; assay: recovery of proliferation after wash-out (irreversible cell arrest); format: cell-based; settings: pre-treated three days with 150 μM H2O2 plus rapamycin, washed, FIG. 5
# [4] = tested on: WI-38 normal human fibroblasts; assay: clonogenicity after wash-out (colonies per plate); format: cell-based; settings: pre-treated three days with 150 μM H2O2 plus rapamycin, washed, 100 cells plated, FIG. 6
# [5] = tested on: apoE-deficient mice having elevated levels of cholesterol; settings: systemic administration, cited from earlier work
# [6] = tested on: renal transplant patients; settings: cited from earlier work
# Candida albicans = settings: in vitro and in vivo; cited from earlier work
# [7] = tested on: experimental allergic encephalomyelitis model; settings: model for multiple sclerosis (Martel et al.); cited from earlier work
# adjuvant arthritis model = settings: model for rheumatoid arthritis (Martel et al.); cited from earlier work
# IgE-like antibodies = settings: Martel et al.; cited from earlier work
# aggregate-prone proteins = settings: Berger et al., 2006; cited from earlier work
structure (smiles),measurement,setting,value
CO[C@H]1C[C@@H]2CC[C@@H](C)[C@@](O)(O2)C(=O)C(=O)N2CCCC[C@H]2C(=O)O[C@H]([C@H](C)C[C@@H]2CC[C@@H](O)[C@H](OC)C2)CC(=O)[C@H](C)/C=C(\C)[C@@H](O)[C@@H](OC)C(=O)[C@H](C)C[C@H](C)/C=C/C=C/C=C/1C [rapamycin],percentage of beta-gal-positive cells (senescent cells),[1],decreased a number of senescent cells
same,amount of protein per cell,[2],decreased the senescence-associated increase of cellular protein
same,proliferative capacity after removal of drugs (cell counts day 0-5),[3],the cells were able to recover and to start proliferation
same,clonogenic activity (cell colonies per plate after fourteen days),[4],they were able to recover and to form colonies
same,neointimal thickening,"[5]; animal models (Elloso et al., 2003)",reduces neointimal thickening
same,progression of atherosclerosis,"[5]; apoE-deficient mice (Elloso et al., 2003)",slows the progression of atherosclerosis
same,development of new tumors,[6]; added to immunosuppressive regimens,prevented new tumors from developing
same,pre-existing tumors,[6],regression of pre-existing tumors
same,antifungal activity,Candida albicans,antifungal activity
same,efficacy in experimental allergic encephalomyelitis model,[7],effective
same,efficacy in adjuvant arthritis model,adjuvant arthritis model,effective
same,formation of IgE-like antibodies,IgE-like antibodies,effectively inhibited
same,autophagic clearance of pathologic proteins,aggregate-prone proteins,enhance the autophagic clearance of pathologic proteins
